Experimental data taken from patent publication US20190055321A1.
No constants are given. Whether binding was seen depends on the method and setting. Some entries that bind do so weakly or less than the wild type.

Chains of the proteins cited; added tags and fusions are not shown. Residues count along the entry.
UniProt P20334, residues 24-256: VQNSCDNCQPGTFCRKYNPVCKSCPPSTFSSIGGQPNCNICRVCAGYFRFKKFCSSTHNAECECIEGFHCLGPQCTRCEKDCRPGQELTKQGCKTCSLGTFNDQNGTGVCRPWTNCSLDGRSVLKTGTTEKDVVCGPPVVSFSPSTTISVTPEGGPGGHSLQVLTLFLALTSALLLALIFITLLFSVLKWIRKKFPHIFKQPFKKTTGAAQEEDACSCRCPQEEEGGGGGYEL

Biological target: CD137 on CD8+ ConA activated splenocytes / activated OT-1 CD8 T cells (UniProt P20334)
Assay: flow cytometry on CD8+ ConA activated splenocytes, mean fluorescence units, Alexa 488 secondary

B1: CD137 Ab proper (anti-CD137 antibody, chimeric, rat variable regions and mouse IgG1 heavy chain constant region) (antibody, V domains shown)
VH: QVQLKEAGPGLVQPTQTLSLTCTVSGFSLTSDGVHWIRQPPGKGLEWMGIIYYDGGTDYNSAIKSRLSISRDTSKSQVFLKINSLQTDDTAMYYCARIHFDYWGQGVMVTVSS
VL: EIVLTQSPTTIAASPGEKVTITCRASSSVSYMYWYQQKSGASPKLWIYDTSKLASGVPNRFSGSGSGTSYSLAINTMETEDAATYYCQQWSSTPLTFGSGTKLEIKR
binding: binds
